Results from patent EP4628892A1 (Korea Research Institute of Bioscience and Biotechnology, dated 2025).
No constants are given. Whether binding was seen depends on the method and setting. Some binding calls cover weakened binding; strength is not graded here.

T1: NgR1 (antigen immobilized on biochips) (UniProt Q9BZR6)
T1 sequence (looked up): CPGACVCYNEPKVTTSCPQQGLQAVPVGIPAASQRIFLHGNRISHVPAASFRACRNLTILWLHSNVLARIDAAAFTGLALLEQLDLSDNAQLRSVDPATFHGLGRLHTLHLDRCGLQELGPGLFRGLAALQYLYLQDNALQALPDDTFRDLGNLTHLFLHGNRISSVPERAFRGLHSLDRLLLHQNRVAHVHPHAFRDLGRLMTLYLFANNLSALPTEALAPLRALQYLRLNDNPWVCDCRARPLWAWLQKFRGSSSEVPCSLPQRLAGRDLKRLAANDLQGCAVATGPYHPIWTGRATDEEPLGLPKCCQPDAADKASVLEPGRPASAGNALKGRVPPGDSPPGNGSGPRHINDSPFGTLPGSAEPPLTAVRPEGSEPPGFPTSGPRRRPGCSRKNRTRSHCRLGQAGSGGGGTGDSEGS


Target: T1, NgR1 (antigen immobilized on biochips)
Assay: SPR, Biacore 8K; NgR1 immobilized on biochip, antibody flowed at different concentrations

Row | Binder | binding
1 | H6HE2L antibody (antibody, human IgG1, kappa, V domains shown, Optimized from CSA108) VH: QMQLVQSGGGLEQPGRSLRLSCVTSGFNFNDYAMHWVRQAPGKGLEWVSGISWNSGAIGYADSVKGRFTVSRDNSKNSLYLQMNSLRAEDTAVYYCARDYNYETSGYYHGFDNWGQGTLVTVSS VL: DIQMTQSPSSVSASVGDRVTITCRASQGISRWLSWYQQKPGKAPKLLIYAASNLQSGVPLRFSGSGSGTDFTLTINSLQPEDSATYYCQQTNNFPYTFGQGTKVEIKR | binds
2 | CSA123 antibody (antibody, human IgG1, kappa, V domains shown, also called anti-NgR1 antibody CSA123) VH: QMQLVQSGAEVKKPGASVKVSCKVSGYTLSELSIHWVRQAPGKGLEWMGGFDPEDDETVYAQKFQGRVTLTDDTSTDTAYMELSSLRSEDTAVYYCARDLGYLTSGNYYDAFDIWGRGTMITVSS VL: DIQMTQSPSSVSASVGDRVTITCRASQDINRWLAWYQQKPGKAPKLLIYAASRLQSGVPLRFSGSGSGTDFTLTINSLQPEDSATYYCQQTNNFPRTFGQGTRLEIKR | binds
3 | C1HE2E6 antibody (antibody, human IgG1, kappa, V domains shown, Optimized from CSA108) VH: QMQLVQSGGGLEQPGRSLRLSCVTSGFNFNDYAMHWVRQAPGKGLEWVSGISWNSGAIGYADSVKGRFTVSRDNSKNSLYLQMNSLRAEDTAVYYCARDYNYEISGYYYGFDNWGQGTLVTVSS VL: DIQMTQSPSSVSASVGDRVTITCRASQGISRWLSWYQQKPGKAPKLLIYAASNLQSGVPLRFSGSGFGTDFTLTINSLQPEDSATYYCQQTNNFPYTFGQGTKVEIKR | binds
4 | S6 antibody (antibody, human IgG1, kappa, V domains shown, Optimized from CSA123) VH: QMQLVQSGAEVKKPGASVKVSCKVSGYTLSGLSIHWVRQAPGKGLEWMGGFDSEDDETVYAQKFQGRVTLTDDTSTDTAYMELSSLRSEDTAVYYCARDLGYLTSGNYYDAFDIWGRGTMITVSS VL: DIQMTQSPSSVSASVGDRVTITCRASQDINRWLAWYQQKPGKAPKLLIYAASRLQSGVPLRFSGSGSGTDFTLTINSLQPEDSATYYCQQTNNFPRTFGQGTRLEIKR | binds
5 | S3 antibody (antibody, human IgG1, kappa, V domains shown, Optimized from CSA123) VH: QMQLVQSGAEVKKPGASVKVSCKVSGYTLSELSIHWVRQAPGKGLEWMGGFDPEDDETVYAQKFQGRVTLTDDTSTDTAYMELSSLRSEDTAVYYCARDLGYLTSGNYYNAFGIWGRGTMITVSS VL: DIQMTQSPSSVSASVGDRVTITCRASQDINRWLAWYQQKPGKAPKLLIYAASRLQSGVPLRFSGSGSGTDFTLTINSLQPEDSATYYCQQTNNFPRTFGQGTRLEIKR | binds

Continued, values first:

Row | binding | Binder
6 | binds | D11 antibody (antibody, human IgG1, kappa, V domains shown, Optimized from CSA123) VH: QMQLVQSGAEVKKPGASVKVSCKVSGYTLSELSIHWVRQAPGKGLEWMGGFDSEDDETVYAQKFQGRVTLTDDTSTDTAYMELSSLRSEDTAVYYCARDLGYLTSGNYYDAFDFWGRGTMITVSS VL: DIQMTQSPSSVSASVGDRVTITCRASQDINRWLAWYQQKPGKAPKLLIYAASRLQSGVPLRFSGSGSGTDFTLTINSLQPEDSATYYCQQTNNFPRTFGQGTRLEIKR
7 | binds | CSA108 antibody (antibody, human IgG1, kappa, V domains shown, also called anti-NgR1 antibody CSA108) VH: QMQLVQSGGGLEQPGRSLRLSCVTSGFNFNDYAMHWVRQAPGKGLEWVSGISWNSGAIGYADSVKGRFTVSRDNSKNSLYLQMNSLRAEDTAVYYCARDYYYETSGYYYGFDNWGQGTLVTVSS VL: DIQMTQSPSSVSASVGDRVTITCRASQGISRWLAWYQQKPGKAPKLLIYAASNLQSGVPLRFSGSGSGTDFTLTINSLQPEDSATYYCQQTNNFPYTFGQGTKVEIKR
8 | binds | G8 antibody (antibody, human IgG1, kappa, V domains shown, Optimized from CSA123) VH: QMQLVQSGAEVKKPGASVKVSCKVSGYPLSELSIHWVRQAPGKGLEWMGGFDSEDDETVYAQKFQGRVTLTDDTSTDTAYMELSSLRSEDTAVYYCARDLGYLTSGNYYDAFGIWGRGTMITVSS VL: DIQMTQSPSSVSASVGDRVTITCRASQDINRWLAWYQQKPGKAPKLLIYAASRLQSGVPLRFSGSGSGTDFTLTINSLQPEDSATYYCQQTNNFPRTFGQGTRLEIKR
